These are yes or no findings as the source states them, for the method shown. Binding seen in cells or lysates may run through a third protein. Binding calls can cover weak binding; strength is not graded here. For some assays here: Sequences can lack the tags named with a protein.
B1: Flag-KL (Flag-tagged Klotho) (protein, UniProt Q9UEF7 34-1012)
chain: EPGDGAQTWARFSRPPAPEAAGLFQGTFPDGFLWAVGSAAYQTEGGWQQHGKGASIWDTFTHHPLAPPGDSRNASLPLGAPSPLQPATGDVASDSYNNVFRDTEALRELGVTHYRFSISWARVLPNGSAGVPNREGLRYYRRLLERLRELGVQPVVTLYHWDLPQRLQDAYGGWANRALADHFRDYAELCFRHFGGQVKYWITIDNPYVVAWHGYATGRLAPGIRGSPRLGYLVAHNLLLAHAKVWHLYNTSFRPTQGGQVSIALSSHWINPRRMTDHSIKECQKSLDFVLGWFAKPVFIDGDYPESMKNNLSSILPDFTESEKKFIKGTADFFALCFGPTLSFQLLDPHMKFRQLESPNLRQLLSWIDLEFNHPQIFIVENGWFVSGTTKRDDAKYMYYLKKFIMETLKAIKLDGVDVIGYTAWSLMDGFEWHRGYSIRRGLFYVDFLSQDKMLLPKSSALFYQKLIEKNGFPPLPENQPLEGTFPCDFAWGVVDNYIQVDTTLSQFTDLNVYLWDVHHSKRLIKVDGVVTKKRKSYCVDFAAIQPQIALLQEMHVTHFRFSLDWALILPLGNQSQVNHTILQYYRCMASELVRVNITPVVALWQPMAPNQGLPRLLARQGAWENPYTALAFAEYARLCFQELGHHVKLWITMNEPYTRNMTYSAGHNLLKAHALAWHVYNEKFRHAQNGKISIALQADWIEPACPFSQKDKEVAERVLEFDIGWLAEPIFGSGDYPWVMRDWLNQRNNFLLPYFTEDEKKLIQGTFDFLALSHYTTILVDSEKEDPIKYNDYLEVQEMTDITWLNSPSQVAVVPWGLRKVLNWLKFKYGDLPMYIISNGIDDGLHAEDDQLRVYYMQNYINEALKAHILDGINLCGYFAYSFNDRTAPRFGLYRYAADQFEPKASMKHYRKIIDSNGFPGPETLERFCPEEFTVCTECSFFHTRKSLLAFIAFLFFASIISLSLIFYYSKKGRRSYK
B2: Klotho (KL), endogenous in rat lung (protein, UniProt Q9Z2Y9 35-1014)
chain: AEPGQGAQTWARFARPPVPEASGLLHDTFPDGFLWAVGSAAYQTEGGWRQHGKGASIWDTFTHHPRAIPEDSPIVMAPSGAPLPPLPSTGDVASDSYNNVYRDTEGLRELGVTHYRFSISWARVLPNGTAGTPNREGLRYYRRLLERLRELGVQPVVTLYHWDLPQRLQDTYGGWANRALADHFRDYAELCFRHFGGQVKYWITIDNPYVVAWHGYATGRLAPGVRGSSRLGYLVAHNLLLAHAKVWRLYNTSFRPTQGGRVSIALGSHWITPRRMTDYHIRECQKSLDFVLGWFAKPIFIDGDYPKSMKNNLSSLLPDFTESEKRFIRGTADFFALSFGPTLSFQLLDPSMKFRQLESPSLRQLLSWIDLEYNHPQIFIVENGWFVSGTTRRDDAKYMYYLKKFIMESLKAIRLDGVDVIGYTAWSLMDGFEWHRGYSIRRGLFYVDFLSQDKELLPKSSALFYQKLIENNGFPPLPENQPLEGTFPCDFAWGVVDNYIQVDPTLSQFTDPNVYLWDVHHSKRLIKVDGVVAKKRKPYCVDFSAIRPQITLLREMRVTHFRFSLDWALILPLGNQTQVNRTVLHFYRCMVSELVHANITPVVALWQPATPHQGLPHALAKHGAWENPHTALAFADYANLCFEELGHWVKFWITINEPNSRNMTYRAGHHLLKAHALAWHLYDDKFRAAQKGKISIALQVDWIEPACPFSQKDKEVAERVLEFDVGWLAEPIFGSGDYPHVMREWLNQKNNFLLPYFTEDEKKLIRGSFDFLALSHYTTILVDWEKEDPIKYNDYLEVQEMTDITWLNSPNQVAVVPWGLRKALNWLRFKYGDLPMFVTANGIDDDPHAEQDSLRMYYIKNYVNEALKAYVLDGINLCGYFAYSLSDRSVPKSGFYRYAANQFEPKPSIKHYRKIIDNNGFLGSGTLGRFCPEEYTVCTGCGFFQTRKSLLAFISFLVFAFVTSLALIYYYSKKGRRRYK

Amino acid sequences for entries named in this document (tags omitted). A change or cut given only in a name is not applied to a line headed by its entry.
UniProt Q00987: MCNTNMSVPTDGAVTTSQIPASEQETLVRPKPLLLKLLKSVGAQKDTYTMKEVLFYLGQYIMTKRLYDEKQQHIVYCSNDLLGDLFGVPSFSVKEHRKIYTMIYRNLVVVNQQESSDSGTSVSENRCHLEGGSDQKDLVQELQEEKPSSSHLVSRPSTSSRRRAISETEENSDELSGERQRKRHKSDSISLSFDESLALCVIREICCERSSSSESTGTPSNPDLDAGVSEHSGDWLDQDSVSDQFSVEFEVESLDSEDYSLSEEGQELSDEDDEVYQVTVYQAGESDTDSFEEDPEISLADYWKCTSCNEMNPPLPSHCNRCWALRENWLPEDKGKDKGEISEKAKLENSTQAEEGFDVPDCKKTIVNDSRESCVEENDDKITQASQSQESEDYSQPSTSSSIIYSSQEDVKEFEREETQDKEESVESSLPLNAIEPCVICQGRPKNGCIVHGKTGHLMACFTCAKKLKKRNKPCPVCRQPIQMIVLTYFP

Assays:
MDM2-HA = MDM2-HA (UniProt Q00987); test: co-IP; transfected A549 cells (the text says HEK-293 for Fig. 5A); lysate in TNE buffer or IP buffer (50 mM Tris-HCl, 2 mM EDTA, 250 mM NaCl, 10% glycerol, 0.5% NP-40); IP with anti-FLAG, anti-HA or anti-Myc and Protein G agarose overnight at 4 °C; immunoblot; some samples with SHANK1 overexpression, sh/si-SHANK1 or si-MDM2
[1] = biological target: MDM2, endogenous in rat lung (rat (endogenous in rat lung)); test: co-IP; endogenous proteins, adult rat lung lysate by the legends (the text says A549 cells); IP with mouse anti-MDM2 or rabbit anti-KL; immunoblot

Row | Binder | binding (MDM2-HA) | binding [1]
1 | B1 | binds | 
2 | B2 |  | binds

From paper PMC9039064
